PubChem BioAssay AID294 (DTP/NCI, 2004)
The list shows only some results of the screen, not a fair sample: it gathers tests that were run many times, whatever their T/C, doses with no T/C, and many T/C values between a quarter and a half above the control. Further doses and runs are listed elsewhere. T/C: endpoint of the treated group in % of that of the vehicle group. Schedules are NCI's codes, taken here to give the interval after Q, in days (D) or hours (H), and the number of doses after X. Some T/C values are negative: the treated tumours shrank. Some T/C values carry the count of animals alive at the toxicity check (mostly the fifth day); without a count, all were alive then. Some doses have a count of surviving animals in place of a T/C: the source holds a T/C of zero for them, seemingly a mark for toxic or unscored doses. Counts of survivors are from the toxicity check (mostly the fifth day) where no day follows; animals may have died later. Some entries were tested several times; the results are listed from low to high. Some molecules as drawn cover several salts, stereoisomers or complexes of the source; a dose is that of the sample tested.

System: MX-1 breast xenograft, nude mice, tumor weight change
Test: NCI In Vivo Anticancer Drug Screen. Data for tumor model Human Mammary Carcinoma MX-1 Xenograft (subcutaneous) in NU/NU Swiss (nude) mice
Details: T/C endpoint: optimum tumor weight change, higher T/C = larger tumour
Experimental: The antitumor activity of compounds was measured in mice bearing transplantable tumors. Survival or tumor size were measured and the results are expressed as the measurement made in the treated group (T) divided by the measurement made in the vehicle treated control group (C). The tumor model used in this assay is Human Mammary Carcinoma MX-1 Xenograft (subcutaneous) in NU/NU Swiss (nude) mice

[1] = dose: 25.0 mg/kg/injection, schedule: Q04DX003 (ip), vehicle: saline
[2] = dose: 50.0 mg/kg/injection, schedule: Q04DX003 (ip), vehicle: saline
[3] = dose: 100.0 mg/kg/injection, schedule: Q04DX003 (ip), vehicle: saline
[4] = dose: 200.0 mg/kg/injection, schedule: Q04DX003 (ip), vehicle: saline
[5] = dose: 200.0 mg/kg/injection, schedule: Q04DX003 (ip), vehicle: saline with Tween-80
[6] = dose: 400.0 mg/kg/injection, schedule: Q04DX003 (ip), vehicle: saline with Tween-80
[7] = dose: 800.0 mg/kg/injection, schedule: Q04DX003 (ip), vehicle: Klucel (hydroxypropylcellulose) (HPC)
[8] = dose: 400.0 mg/kg/injection, schedule: Q04DX003 (ip), vehicle: Klucel (hydroxypropylcellulose) (HPC)
[9] = dose: 400.0 mg/kg/injection, schedule: Q04DX003 (ip), vehicle: saline

CNC(=O)ON(C(C)=O)C(=O)NC
survivor count [1]: 3 of 5 on day 39 | T/C (dose: 50.0 mg/kg/injection, schedule: Q04DX003 (ip), vehicle: saline, evaluated on day 33): 23 % of control | T/C (dose: 50.0 mg/kg/injection, schedule: Q04DX003 (ip), vehicle: saline, evaluated on day 34): 122 % of control | T/C (dose: 50.0 mg/kg/injection, schedule: Q04DX003 (ip), vehicle: saline, evaluated on day 39): 107 % of control [4 of 5 alive on day 39] | survivor count [2]: 1 of 5 on day 40 | T/C (dose: 100.0 mg/kg/injection, schedule: Q04DX003 (ip), vehicle: saline, evaluated on day 34): -2 % of control | T/C (dose: 100.0 mg/kg/injection, schedule: Q04DX003 (ip), vehicle: saline, evaluated on day 40): 53 % of control | survivor count [3]: 0 of 5 on day 35 and 2 of 5 on day 39 | survivor count [4]: 0 of 5 on day 35, 0 of 5 on day 39, 0 of 5 on day 40

CCN(CC)CCCC(C)Nc1c2ccc(Cl)cc2nc2ccc(OC)cc12 (configuration not stated)
survivor count [5]: 0 of 5 on day 40 | survivor count [6]: 0 of 5 on day 40

CC(=O)OCC1OC(n2ccc(N)nc2=O)C(OC(C)=O)C1OC(C)=O (configuration not stated)
survivor count (dose: 600.0 mg/kg/injection, schedule: Q04DX003 (ip), vehicle: suspension in saline): 1 of 5 on day 40 | survivor count (dose: 1200.0 mg/kg/injection, schedule: Q04DX003 (ip), vehicle: suspension in saline): 0 of 5 on day 40 | survivor count (dose: 2400.0 mg/kg/injection, schedule: Q04DX003 (ip), vehicle: suspension in saline): 1 of 5 on day 40

CN(C)N=Nc1cn[nH]c1C(N)=O
survivor count (dose: 100.0 mg/kg/injection, schedule: Q04DX003 (ip), vehicle: Klucel (hydroxypropylcellulose) (HPC)): 3 of 5 on day 39 | T/C (dose: 200.0 mg/kg/injection, schedule: Q04DX003 (ip), vehicle: Klucel (hydroxypropylcellulose) (HPC), evaluated on day 39): 142 % of control [4 of 5 alive on day 39] | survivor count [7]: 0 of 5 on day 39

CS(=O)(=O)OCCN(CCOS(C)(=O)=O)c1ccc(C=Nc2ccc(-c3csc(COc4ccccc4)n3)cc2)cc1
survivor count (dose: 200.0 mg/kg/injection, schedule: Q04DX003 (ip), vehicle: Klucel (hydroxypropylcellulose) (HPC)): 0 of 5 on day 41 | survivor count [8]: 0 of 5 on day 41 | survivor count [7]: 0 of 5 on day 41

O=P1(NCCCl)OCCCN1CCCl (configuration not stated)
survivor count [3]: 1 of 5 on day 36 | survivor count [4]: 0 of 5 on day 34 and 0 of 5 on day 36 | survivor count [9]: 0 of 5 on day 34 | survivor count (dose: 800.0 mg/kg/injection, schedule: Q04DX003 (ip), vehicle: saline): 0 of 5 on day 34

CSc1cc(=O)n2c3ccccc3c3ccnc1c32
T/C (dose: 80.0 mg/kg/injection, schedule: Q04DX003 (ip), vehicle: saline with Tween-80, evaluated on day 40): 128 % of control | survivor count (dose: 80.0 mg/kg/injection, schedule: Q04DX003 (ip), vehicle: saline with Tween-80): 2 of 5 on day 36 | T/C (dose: 160.0 mg/kg/injection, schedule: Q04DX003 (ip), vehicle: saline with Tween-80, evaluated on day 40): 132 % of control | survivor count (dose: 160.0 mg/kg/injection, schedule: Q04DX003 (ip), vehicle: saline with Tween-80): 3 of 5 on day 36 | survivor count (dose: 320.0 mg/kg/injection, schedule: Q04DX003 (ip), vehicle: saline with Tween-80): 1 of 5 on day 36

ClCC[N+]12CC[N+](CCCl)(CC1)C2
survivor count (dose: 100.0 mg/kg/injection, schedule: Q04DX003 (ip), vehicle: water): 0 of 5 on day 35 | survivor count [5]: 3 of 5 on day 40 | survivor count [6]: 2 of 5 on day 40 and 3 of 5 on day 35 | survivor count (dose: 800.0 mg/kg/injection, schedule: Q04DX003 (ip), vehicle: saline with Tween-80): 3 of 5 on day 35 and 3 of 5 on day 40

COc1cc([C@@H]2c3cc4c(c(O)c3C[C@H]3COC(=O)[C@@H]32)OCO4)cc(OC)c1O
survivor count (dose: 12.5 mg/kg/injection, schedule: Q04DX003 (ip), vehicle: saline): 3 of 5 on day 35 | survivor count [1]: 0 of 5 on day 35

CN(C)c1nc(N(C)C)nc(N(C)C)n1
survivor count (dose: 60.0 mg/kg/injection, schedule: Q04DX005 (ip), vehicle: saline): 2 of 5 | survivor count (dose: 240.0 mg/kg/injection, schedule: Q01DX005 (ip), vehicle: Klucel (hydroxypropylcellulose) (HPC)): 2 of 5 | survivor count (dose: 240.0 mg/kg/injection, schedule: Q04DX005 (ip), vehicle: Klucel (hydroxypropylcellulose) (HPC)): 3 of 5 | survivor count (dose: 240.0 mg/kg/injection, schedule: Q04DX005 (ip), vehicle: saline): 3 of 5 | survivor count [8]: 3 of 5 on day 40 | survivor count (dose: 480.0 mg/kg/injection, schedule: Q01DX005 (ip), vehicle: Klucel (hydroxypropylcellulose) (HPC)): 1 of 5 | survivor count (dose: 480.0 mg/kg/injection, schedule: Q04DX005 (ip), vehicle: Klucel (hydroxypropylcellulose) (HPC)): 2 of 5 | survivor count (dose: 480.0 mg/kg/injection, schedule: Q07DX005 (ip), vehicle: Klucel (hydroxypropylcellulose) (HPC)): 2 of 5

O=NN(CCCl)C(=O)NC1CCCCC1
survivor count (dose: 25.0 mg/kg/injection, schedule: Q04DX003 (ip), vehicle: Klucel (hydroxypropylcellulose) (HPC)): 3 of 5 on day 40 | survivor count (dose: 50.0 mg/kg/injection, schedule: Q04DX003 (ip), vehicle: Klucel (hydroxypropylcellulose) (HPC)): 3 of 5 on day 40

O=C/C(Cl)=C(/Cl)C(=O)O
survivor count (dose: 25.0 mg/kg/injection, schedule: Q04DX003 (ip), vehicle: saline with Tween-80): 2 of 5 on day 35 | survivor count (dose: 50.0 mg/kg/injection, schedule: Q04DX003 (ip), vehicle: saline with Tween-80): 0 of 5 on day 35 | survivor count (dose: 100.0 mg/kg/injection, schedule: Q04DX003 (ip), vehicle: saline with Tween-80): 0 of 5 on day 35

C[C@]12CC[C@@H]3c4ccc(OC(=O)Cc5ccc(N(CCCl)CCCl)cc5)cc4CC[C@H]3[C@@H]1CC[C@@H]2OC(=O)Cc1ccc(N(CCCl)CCCl)cc1
survivor count [5]: 2 of 5 on day 38 | survivor count [6]: 0 of 5 on day 38 | survivor count (dose: 1600.0 mg/kg/injection, schedule: Q04DX003 (ip), vehicle: saline with Tween-80): 1 of 5 on day 38

O=Cc1ccc(O)c(O)c1
T/C (dose: 100.0 mg/kg/injection, schedule: Q04DX003 (ip), vehicle: saline with Tween-80, evaluated on day 34): 142 % of control | T/C (dose: 200.0 mg/kg/injection, schedule: Q04DX003 (ip), vehicle: saline with Tween-80, evaluated on day 34): 144 % of control

C1OC1CN1CCN(CC2CO2)CC1 (configuration not stated)
survivor count [2]: 0 of 5 on day 36

N=C(N)Sc1ccccn1
survivor count [9]: 0 of 5 on day 36

O=c1[nH]cnc2n[nH]nc12
survivor count [7]: 2 of 5 on day 36 | survivor count (dose: 1600.0 mg/kg/injection, schedule: Q04DX003 (ip), vehicle: Klucel (hydroxypropylcellulose) (HPC)): 0 of 5 on day 36
